According to article PMC9731852:
Where two headings read alike, the source gives them in different places. Results are given in words; binding and its absence hold for the method and conditions named. Binding seen in cells or lysates may run through a third protein. Some entries that bind do so weakly or less than the wild type. Tags and fused reporters may be left off the sequences shown.

By UniProt entry, the sequences of proteins in these tests, tags left out. Where a name states a change or a piece, a line headed by the entry shows the natural chain unless it says otherwise. Residues count along the entry.
UniProt O15260: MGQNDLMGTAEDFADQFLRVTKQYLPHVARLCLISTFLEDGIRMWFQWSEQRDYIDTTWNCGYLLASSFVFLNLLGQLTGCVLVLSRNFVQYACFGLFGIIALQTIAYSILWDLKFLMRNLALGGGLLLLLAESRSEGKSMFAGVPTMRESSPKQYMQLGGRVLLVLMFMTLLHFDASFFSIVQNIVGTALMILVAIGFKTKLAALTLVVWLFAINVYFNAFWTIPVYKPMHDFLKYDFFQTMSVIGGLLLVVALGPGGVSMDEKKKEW
UniProt Q62226, residues 25-198: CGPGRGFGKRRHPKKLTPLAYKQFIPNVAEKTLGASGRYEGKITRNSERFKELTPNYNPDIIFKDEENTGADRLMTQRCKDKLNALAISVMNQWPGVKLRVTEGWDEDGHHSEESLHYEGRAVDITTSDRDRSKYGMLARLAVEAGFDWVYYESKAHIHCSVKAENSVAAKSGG

Key:
Experiment in all cases: pull-down; about 5 μg GST-SURF4^49–60 (WT or MT) on 10 μl GSH beads, incubated with 200 μl of 0.5 mg/ml lysate of transfected HEK293T cells in KOAc buffer (110 mM KOAc, 2 mM Mg(OAc)2, 20 mM Hepes, pH 7.2), 4 °C overnight; washed with 0.5 M KOAc buffer and KOAc buffer; immunoblot with anti-HA; only the target purified
[1] = biological target: T1, GST-tagged human SURF4^49–60 with E50, D53 and D56 substituted to alanine (triacidic motif-mutated) (human) (UniProt O15260)
T1 sequence: SAQRAYIATTWN

[2] = biological target: T2, GST-tagged human SURF4^49–60 (predicted first luminal loop of surfeit locus protein 4) (human) (UniProt O15260)
T2 sequence: SEQRDYIDTTWN

[3] = biological target: T1, GST-tagged human SURF4^49–60 with E50, D53 and D56 substituted to alanine (triacidic motif-mutated) (human); remark: listed apart in the source
[4] = biological target: T2, GST-tagged human SURF4^49–60 (predicted first luminal loop of surfeit locus protein 4) (human); remark: listed apart in the source

C-terminal 3 × HA-tagged ShhN (aa:1–198), N-terminal fragment of sonic hedgehog (from UniProt Q62226 25-198) (domain or fragment)
binding [1]: binds
binding [2]: binds

B1: C-terminal 3 × HA-tagged SFRP1 (secreted frizzled-related protein 1) (protein, UniProt Q8N474 32-314)
chain: SEYDYVSFQSDIGPYQSGRFYTKPPQCVDIPADLRLCHNVGYKKMVLPNLLEHETMAEVKQQASSWVPLLNKNCHAGTQVFLCSLFAPVCLDRPIYPCRWLCEAVRDSCEPVMQFFGFYWPEMLKCDKFPEGDVCIAMTPPNATEASKPQGTTVCPPCDNELKSEAIIEHLCASEFALRMKIKEVKKENGDKKIVPKKKKPLKLGPIKKKDLKKLVLYLKNGADCPCHQLDNLSHHFLIMGRKVKSQYLLTAIHKWDKKNKEFKNFMKKMKNHECPTFQSVFK
binding [3]: binds
binding [4]: binds

B2: polybasic motif–depleted SFRP1-HA (aa 223–245 deleted) (protein, UniProt Q8N474)
chain: SEYDYVSFQSDIGPYQSGRFYTKPPQCVDIPADLRLCHNVGYKKMVLPNLLEHETMAEVKQQASSWVPLLNKNCHAGTQVFLCSLFAPVCLDRPIYPCRWLCEAVRDSCEPVMQFFGFYWPEMLKCDKFPEGDVCIAMTPPNATEASKPQGTTVCPPCDNELKSEAIIEHLCASEFALRMKIKEVKKENGDLVLYLKNGADCPCHQLDNLSHHFLIMGRKVKSQYLLTAIHKWDKKNKEFKNFMKKMKNHECPTFQSVFK
binding [4]: binds
